## Primary screen of a compound library

Amino acid sequences for entries named in this document (tags omitted).
UniProt E9BF75, entry or part of it: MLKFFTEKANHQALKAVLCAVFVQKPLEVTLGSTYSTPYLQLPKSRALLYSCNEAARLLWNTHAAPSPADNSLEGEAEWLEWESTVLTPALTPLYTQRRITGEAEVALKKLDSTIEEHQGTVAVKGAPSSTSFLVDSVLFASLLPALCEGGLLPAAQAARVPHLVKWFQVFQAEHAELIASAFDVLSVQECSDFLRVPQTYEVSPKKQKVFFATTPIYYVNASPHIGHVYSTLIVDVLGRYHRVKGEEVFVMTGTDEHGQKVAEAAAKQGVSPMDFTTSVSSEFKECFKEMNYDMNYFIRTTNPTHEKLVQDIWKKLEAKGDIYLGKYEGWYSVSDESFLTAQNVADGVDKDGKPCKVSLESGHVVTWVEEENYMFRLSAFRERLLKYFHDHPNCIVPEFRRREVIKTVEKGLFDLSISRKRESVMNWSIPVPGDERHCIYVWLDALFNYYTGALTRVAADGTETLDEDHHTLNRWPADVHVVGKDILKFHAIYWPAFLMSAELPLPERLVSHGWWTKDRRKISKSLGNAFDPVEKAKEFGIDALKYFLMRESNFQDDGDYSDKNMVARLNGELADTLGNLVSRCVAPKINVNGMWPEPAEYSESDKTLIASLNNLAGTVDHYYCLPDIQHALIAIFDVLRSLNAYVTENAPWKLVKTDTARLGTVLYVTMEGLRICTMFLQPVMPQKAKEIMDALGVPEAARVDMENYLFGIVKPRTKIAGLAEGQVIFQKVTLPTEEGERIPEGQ

Data taken from ChEMBL document CHEMBL3988442, “University of Dundee, Small-Polar-MMV Screening Library” (2021).

All values are in %. The controls that fix the scale are not given in the record; negative values are as filed. This is an unselected part of the compounds tested. A dash means the value is not listed here; it may have been measured.

Mtb heat-shock: 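Assay on Mycobacterium tuberculosis, filed only as a heat shock assay from Cornell; the read-out is not stated. The concentration is filed as 10 mM, unlikely as a test dose, so the dose is not known. Direction is inferred from retests: higher values go with stronger inhibition. Size under these conditions: about 69,000 compounds, about 930 of them at 50% or above in at least one test.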
LdMetRS: 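Methionyl-tRNA synthetase (putative), Leishmania donovani (UniProt E9BF75). Primary screen of methionyl-tRNA synthetase; the read-out is not stated. The test concentration is not given. The values are filed as inhibition. Of about 68,000 compounds tested this way, about 24 (0.035%) reached 50% or more in at least one test.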
Mtb growth Cornell: 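Whole-cell assay for inhibitors of Mycobacterium tuberculosis growth, labelled Cornell in the record; the read-out is not stated. The concentration is filed as 10 mM, unlikely as a test dose, so the dose is not known. Higher means stronger inhibition (inferred from two other growth screens of the library). About 53,000 compounds were tested under these conditions; 1.7% (about 900) showed 50% or more at least once.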

compound,Mtb heat-shock,LdMetRS,Mtb growth Cornell
COc1ccc(CN2C[C@@H]3OCCN(c4ncccn4)[C@@H]3C2)cc1,-,4.53%,-
CC(C)OCCN1CCN(C(=O)c2cc(-n3cccn3)ccn2)CC1,13.53%,13.83%,7.44%
[H][C@]12CC[C@]([H])(CN(c3cnccn3)C1)N(C(=O)c1cnc(C)cn1)C2,-7.052%,-,-57.9%
O=C(O)C(F)(F)F.O=C(O)C(F)(F)F.[H][C@@]12CCCO[C@]1([H])[C@H](N(C)C(C)C)CN(Cc1scnc1C)C2,-11.75%,-,26.28%
CCCNC(=O)CNc1cc(C(=O)N2CCSCC2)ccc1C,-28.27%,19.5%,-16.06%
CSc1cccc(CNC(=O)[C@H]2CNC[C@@H](C(=O)N3CCOCC3)C2)c1,21.61%,5.115%,-25.42%
Cc1nc(CN2C[C@@H]3CN(C(=O)c4cccn4C)C[C@@H]3C2)cs1,-,-2.241%,-
C=C(C)CN(CC)C(=O)CN1CCCC1C(=O)N(C)C (stereo unspecified),6.919%,-3.951%,-0.8822%
Cc1nc(C)c(CNC(=O)N2CCN(c3ccc(Cl)cn3)CC2)s1,-12.38%,14.25%,-
Cc1ccc(=O)n(CC2(O)CCN(Cc3cnn(C)c3)CC2)n1,-2.067%,15.1%,24.61%
[H][C@]12CCC(=O)N(c3ccccc3)[C@@]1([H])CCN2C(=O)c1cscn1,1.809%,-,102.6%
CCCn1nc(C2CCNCC2)n(Cc2ccccc2)c1=O,-6.258%,17.75%,-
[H][C@]12CC[C@]([H])(CN(C(=O)COCc3nc4cc(F)ccc4[nH]3)C1)N(C)C2,0.9855%,-,2.69%
OC1(CN2CCC(Cc3ncccn3)CC2)CCCCC1,1.945%,19.37%,16.42%
CS(=O)(=O)NCCC(=O)N1CCN(S(=O)(=O)c2ccc(Br)cc2)CC1,-5.301%,3.846%,22.49%
Nc1ccc(C(=O)N2CCC(Oc3cccc(C(F)(F)F)c3)CC2)cn1,11.49%,16.72%,11.01%
Cc1ccc(C)c(OCc2cc(C(=O)N(C)Cc3cnn(C)c3)no2)c1,-26.28%,5.028%,28.02%
CCN1CCCC(C)(C(=O)NCc2nnnn2-c2ccccc2)C1 (stereo unspecified),12.25%,14.64%,1.706%
Cc1cc(Cl)ccc1-n1ncc(C(=O)N(C)CCc2ccccn2)c1N,67.07%,3.056%,-44.08%
CCc1nc(CN2CCCN(Cc3cnn(C)c3)CC2)no1,-7.666%,8.374%,-4.526%
O=C(CN1CCS(=O)(=O)CC1)NC1CCCCc2ccccc21 (stereo unspecified),2.999%,19.1%,6.49%
Cc1ncc(C(=O)N2CC[C@@]3(O)CCN(C(=O)N(C)C)C[C@H]3C2)cn1,-,9.964%,-
CC(Cn1ccnc1)NC1CCN(Cc2cccc(O)c2)CC1 (stereo unspecified),-8.978%,14.53%,-8.499%
[H][C@@]12CCN(C(=O)c3cc(C)c(C)s3)C[C@]1(c1nc(C)no1)CCO2,-14.01%,-,11.55%
O=C(O)C(F)(F)F.[H][C@@]12CCN(Cc3cccs3)C[C@@]1([H])[C@H](C(=O)N1CCCCO1)CCO2,-11.65%,-,9.891%
CN(C)C1CCN(Cc2cnc(S(C)(=O)=O)n2CC2CCCCC2)C1 (stereo unspecified),5.82%,13.86%,28.2%
O=C(O)C(F)(F)F.O=C(c1ccccc1)N1CCC[C@]2(C[C@@H](OCc3ccncc3)CO2)C1,-23.99%,-,13.84%
C=Cc1ccc(C(=O)NC2CCCc3nc(N(C)C)ncc32)cc1 (stereo unspecified),-5.359%,9.22%,-5.714%
CN1CCCC1CCNC(=O)c1ccccc1-n1cnc(CN)c1 (stereo unspecified),-21.39%,8.14%,-39.2%
CN1C[C@H]2C[C@H](C(=O)Nc3cccnc3)[C@@H](C1)O2,-,7.96%,-
CCc1cnc(C)nc1NCc1cnc2c(c1)CCC2,3.517%,21.49%,-38.67%
Cn1cc(C(=O)N2CCC(c3nccn3Cc3ccncc3)CC2)cn1,-12.14%,12.71%,8.418%
CSc1ccc(CN(CCO)C(=O)CCc2ccc(O)cc2)cc1,9.031%,10.95%,0.2853%
C[C@@H](NCc1cccc(Cl)c1)c1onc(-c2ccccc2)c1C(=O)O,0.5604%,12.03%,-27.82%
CN1CCN(C2CCN(CCOc3ccc(F)cc3)CC2)C1=O,-1.415%,6.883%,-5.09%
FC(F)(F)c1ccc2nc([C@H]3CCN(C4CCC4)C3)[nH]c2c1,17.31%,3.297%,-
CCc1nnc2n1CCN(C(=O)c1cnn(C)c1C1CC1)C2,-14.15%,10.07%,-13.03%
Cc1cc(CNC(=O)N2CCCN(Cc3ccccc3)CC2)no1,12.79%,4.225%,-7.747%
O=C(c1ccccc1)N1C[C@H]2CCC[C@@]2(COCc2ccncc2)C1,-,14.89%,-
Cc1csc(CN(CC2CCCO2)C(=O)c2cccnc2C)n1 (stereo unspecified),-7.542%,12.93%,0.279%
CCC(=O)NCC(=O)NCc1cc(Br)ccc1OC(F)F,-11.74%,14.63%,9.889%
COC(=O)C(C)(C)NC(=O)C1CC(=O)N(CC(C)C)C1 (stereo unspecified),2.949%,11.04%,-0.1193%
Cc1cc(-c2cnc(N3CCCC(C)C3)nc2C(C)C)on1 (stereo unspecified),0.3335%,5.814%,0.8208%
CS(=O)(=O)NCCC(=O)NC1(c2ccc(F)cc2)CCCC1,16.77%,16.72%,19.26%

The last 4 entries again:

compound	Mtb heat-shock	LdMetRS	Mtb growth Cornell
CCC(=O)NCC(=O)NCc1cc(Br)ccc1OC(F)F	-11.74%	14.63%	9.889%
COC(=O)C(C)(C)NC(=O)C1CC(=O)N(CC(C)C)C1 (stereo unspecified)	2.949%	11.04%	-0.1193%
Cc1cc(-c2cnc(N3CCCC(C)C3)nc2C(C)C)on1 (stereo unspecified)	0.3335%	5.814%	0.8208%
CS(=O)(=O)NCCC(=O)NC1(c2ccc(F)cc2)CCCC1	16.77%	16.72%	19.26%